Experiment [1] concerns the target eIF3f (co-IP with FBXW7β, Figure S3H) (human (cDNA from HEK293T cells or endogenous in human cell lines)) (UniProt O00303). Nature of the experiment: co-IP; eIF3f with FBXW7β (Figure S3H); constructs, bait and cells not given.
Experiment [2] concerns the target Eukaryotic Initiation translation factor 3, f subunit (eIF3f) (human (endogenous in HCT-116)) (UniProt O00303). Nature of the experiment: SEC; lysates of HCT-116 cells (shNC or DOX-induced shEIF3F) on Superose 6 Increase 10/300 GL in cold PBS pH 7.4, 0.4 ml/min; fractions immunoblotted. (SEC sorts molecules by how far they enter the pores of the column.)
Experiment [3] has the same target. Nature of the experiment: proximity ligation; HCT-116 cells fixed with 4% PFA, permeabilised with 0.5% Triton X-100, primary antibodies overnight at 4 °C, Duolink kit, confocal microscope.
The target is the same in experiment [4]. Nature of the experiment: co-IP; endogenous proteins; lysis in 50 mM Tris-HCl pH 7.5, 150 mM NaCl, 1 mM EDTA, 1% NP-40; antibody overnight at 4 °C, protein A/G beads 4 h; immunoblot.

Sequences of proteins named here, by UniProt entry; tags and fusion partners are left off. A change or cut given only in a name is not applied to a line headed by its entry. A line that says so, or that is headed by a name, gives the form on record, which may keep a tag or linker.
UniProt O00303: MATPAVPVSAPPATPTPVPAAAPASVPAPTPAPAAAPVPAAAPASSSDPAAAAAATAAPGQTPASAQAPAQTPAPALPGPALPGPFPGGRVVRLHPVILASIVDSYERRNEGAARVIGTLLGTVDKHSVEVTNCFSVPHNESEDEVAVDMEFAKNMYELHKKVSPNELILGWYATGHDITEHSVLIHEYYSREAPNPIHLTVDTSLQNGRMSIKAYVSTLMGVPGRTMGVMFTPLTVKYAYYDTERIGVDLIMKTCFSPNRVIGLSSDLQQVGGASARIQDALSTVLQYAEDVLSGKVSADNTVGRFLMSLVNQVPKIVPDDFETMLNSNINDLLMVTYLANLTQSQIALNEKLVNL
FBXW7β (Q969H0-2, form named): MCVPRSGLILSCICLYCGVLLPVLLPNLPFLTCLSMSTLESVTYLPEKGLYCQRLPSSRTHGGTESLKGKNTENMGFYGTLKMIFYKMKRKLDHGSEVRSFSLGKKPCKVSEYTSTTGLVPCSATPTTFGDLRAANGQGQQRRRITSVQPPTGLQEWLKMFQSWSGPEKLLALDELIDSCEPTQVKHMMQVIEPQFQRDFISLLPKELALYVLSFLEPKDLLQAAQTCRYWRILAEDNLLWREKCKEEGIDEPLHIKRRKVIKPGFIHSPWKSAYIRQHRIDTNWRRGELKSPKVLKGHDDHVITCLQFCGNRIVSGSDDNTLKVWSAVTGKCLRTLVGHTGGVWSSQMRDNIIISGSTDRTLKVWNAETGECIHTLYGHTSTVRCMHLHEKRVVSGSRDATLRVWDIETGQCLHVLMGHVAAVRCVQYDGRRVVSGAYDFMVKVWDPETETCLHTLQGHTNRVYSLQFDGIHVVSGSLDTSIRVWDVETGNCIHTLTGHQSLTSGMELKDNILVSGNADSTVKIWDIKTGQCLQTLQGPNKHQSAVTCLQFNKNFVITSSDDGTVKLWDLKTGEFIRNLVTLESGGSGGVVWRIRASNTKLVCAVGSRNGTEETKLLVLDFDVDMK
UniProt P01106: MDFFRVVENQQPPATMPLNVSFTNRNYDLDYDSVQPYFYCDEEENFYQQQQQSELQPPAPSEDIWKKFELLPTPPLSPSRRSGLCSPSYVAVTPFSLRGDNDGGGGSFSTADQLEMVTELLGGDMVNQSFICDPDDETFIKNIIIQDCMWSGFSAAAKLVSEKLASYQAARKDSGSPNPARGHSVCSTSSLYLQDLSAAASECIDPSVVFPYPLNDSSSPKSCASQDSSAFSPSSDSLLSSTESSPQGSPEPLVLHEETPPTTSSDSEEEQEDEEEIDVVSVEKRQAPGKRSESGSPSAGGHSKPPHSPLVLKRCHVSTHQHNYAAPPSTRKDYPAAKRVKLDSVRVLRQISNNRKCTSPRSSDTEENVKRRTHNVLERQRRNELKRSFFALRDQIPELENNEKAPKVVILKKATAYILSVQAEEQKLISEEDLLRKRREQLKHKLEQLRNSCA

These are yes or no findings as the source states them, for the method shown. For some of these results: In cells and extracts the contact can be indirect. Some binding calls cover weakened binding; strength is not graded here.

For “FBXW7β (co-IP with eIF3f, Figure S3H) (from UniProt Q969H0-2 1-627)”, the binding result in experiment [1] is recorded as “binds”.
In the case of FBXW7β (from UniProt Q969H0-2 1-627), in experiment [2], the binding entry was “binds”.
For MYC (from UniProt P01106 1-454), the binding result in experiment [3] and in experiment [4] was “binds” each time.

The values above are taken from paper PMC10520677.
